Among all 360,000 compounds or so, about 7,500 (2.1%) were called active. Inconclusive means that the source gave no clear call. Such entries were picked first, then a sample of the others. Calls follow the shape of the dose curve; as a rule, active = well fitted inhibition curve with a large enough effect; inconclusive = small, poorly fitted or top-dose-only effect, or effect the other way; inactive = flat fitted curve, though single readings scatter. A potency beside an inconclusive call is a rough fit, not a confirmed value.
Assay: Nrf2 qHTS screen for inhibitors; also: nearly all actives have a fitted effect of over 60% in size
Details: A549 ARE-Fluc reporter, luciferase luminescence, 18-24 h; activity change, negative = inhibition: at 46 µM (top of the series)
In short: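 Two sequential reads on A549 ARE_Fluc cells exposed to compound for 18-24 h: a CellTiter-Fluor fluorescence read for viability, then a luciferase luminescence read for Nrf2/ARE activity.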
% is scaled to controls: 0 for no effect and ±100 for the full control effect; potency is read from the fitted curve at half-maximal effect.

| Compound | activity change, negative = inhibition | Potency |
| --- | --- | --- |
| COc1ccc(-c2nnc3n2N=C(c2ccccc2OC)CS3)cc1OC | inactive: -18.9% | – |
| COc1ccc(OC)c(NC(=O)C2CCCN(S(=O)(=O)c3cccc4nonc34)C2)c1 (configuration not stated) | inactive: -14.8% | – |
| Cc1ccc(N2CCN(CCc3nc4cc(NS(C)(=O)=O)ccc4n3C)CC2)cc1 | – | inconclusive: 25.9 µM [falling, partial curve, poor fit] |
| O=C1CCC(C(=O)N2CCCCO2)CN1CCc1ccccc1 (configuration not stated) | – | inconclusive: 18.4 µM [activator, partial curve] |
| CN1CCN(c2ccc(NC(=O)c3ccc([N+](=O)[O-])o3)cc2Cl)CC1 | – | inconclusive: 29.1 µM [activator, single point] |
| CCc1ccc2c(CN3CCN(S(=O)(=O)c4ccc5c(c4)OCCO5)CC3)cc(=O)oc2c1 | – | inconclusive: 16.4 µM [falling, single point] |
| CCOc1cc(/C=N/N=C(/N)c2nonc2N)cc(Br)c1OCc1ccc(Cl)cc1 | – | inconclusive: 29.1 µM [falling, single point] |
| C=CCNc1nc(C)c(CNc2c(C)cc(C)cc2C)nc1C#N | – | inconclusive: 20.6 µM [falling, partial curve] |
| N/C(=N\OC(=O)COc1ccc2ccccc2c1)c1ccccn1 | – | inconclusive: 1.46 µM [activator, partial curve, poor fit] |
| Clc1cccc(N2CCN(Cc3nc(-c4ccccc4)no3)CC2)c1 | – | inconclusive: 13 µM [activator, partial curve, poor fit] |
| CCOC(=O)c1ccc(-c2c(-c3ccc(OC)cc3)oc(=O)c3cc(OC)c(OC)cc23)cc1F | – | inconclusive: 29.1 µM [falling, partial curve, poor fit] |
| CCN(CC)C(=O)c1ccc(Nc2nnc(-c3ccc(O)cc3)c3ccccc23)cc1 | – | inconclusive: 13 µM [falling, partial curve] |
| O=C1c2ccc(-c3ccc(F)cc3OCc3ccccc3)cc2S(=O)(=O)c2cccc(C(=O)N3CCCC3)c21 | – | inconclusive: 16.4 µM [falling, single point] |
| CCOC(=O)N1CCN(S(=O)(=O)c2ccc3c(c2)C(C)C(=O)N3)CC1 (configuration not stated) | – | inconclusive: 13 µM [falling, partial curve] |
| O=C(CCCn1c2ccccc2c(=O)c2ccccc21)Nc1cccc(Cl)c1 | – | inconclusive: 23.1 µM [falling, single point] |
| CC(C)CC(=O)NC(c1cccs1)c1ccc2cccnc2c1O (configuration not stated) | – | active: 20.6 µM |
| Cc1nn(CCCC(=O)Nc2cccnc2)c(C)c1[N+](=O)[O-] | – | inconclusive: 3.26 µM [activator, full curve] |
| CCC(C)Nc1nc2c(C)cccn2c(=O)c1C=Nc1ccc(OC)cc1 (configuration not stated) | – | inconclusive: 18.4 µM [falling, partial curve, poor fit] |
| C=CCNc1nc2c(c(=O)n(C)c(=O)n2C)n1Cc1ccc(F)cc1 | – | active: 8.2 µM |
| O=C(Nc1cc(Cl)ccc1F)c1ccc(-n2cncn2)c([N+](=O)[O-])c1 | – | inconclusive: 11.6 µM [falling, partial curve, poor fit] |
| CCOc1ccccc1NC(=O)/C(C#N)=C/c1c(C)nn(-c2ccccc2)c1Cl | – | inconclusive: 32.6 µM [falling, partial curve, poor fit] |

Copied from the list:
Potency with CN1CCN(c2ccc(NC(=O)c3ccc([N+](=O)[O-])o3)cc2Cl)CC1 is entered as inconclusive: 29.1 µM [activator, single point]
Potency with Clc1cccc(N2CCN(Cc3nc(-c4ccccc4)no3)CC2)c1 is entered as inconclusive: 13 µM [activator, partial curve, poor fit]
Potency with CCN(CC)C(=O)c1ccc(Nc2nnc(-c3ccc(O)cc3)c3ccccc23)cc1 is entered as inconclusive: 13 µM [falling, partial curve]

Next part.

| Compound | activity change, negative = inhibition | Potency |
| --- | --- | --- |
| CCC(=O)N1CCN(c2cc(N3CCCC3)c(F)cc2[N+](=O)[O-])CC1 | inactive: -24.8% | – |
| Cc1ccc(C(=O)Nc2ccc3c(c2)OCO3)o1 | – | inconclusive: 14.6 µM [activator, partial curve] |
| COc1cc(NC(=O)COc2cc(O)c3c(c2)OC(C)(C)CC3=O)cc(OC)c1 | – | inconclusive: 23.1 µM [falling, single point] |
| Cc1cc(C)nc(N2CCC(C(=O)O)CC2)n1 | inactive: 3.25% | – |
| Cc1csc(NC(=O)c2ccc(Br)s2)n1 | – | inconclusive: 9.2 µM [activator, partial curve] |
| COc1cc(C)ccc1OCCSc1nc2ccc(NC(=O)c3ccco3)cc2s1 | – | inconclusive: 29.1 µM [falling, single point] |
| COCCNC(=S)N(CCc1c(C)[nH]c2ccccc12)Cc1ccco1 | – | inconclusive: 2.06 µM [falling, partial curve, poor fit] |
| O=C(Nc1nc2ccc(F)cc2s1)c1ccc(N2CCCC2=O)cc1 | – | inconclusive: 0.259 µM [activator, full curve, poor fit] |
| COc1ccc(CNC(=O)CCc2nnc3ccc(N4CCC5(CC4)OCCO5)nn23)cc1 | inactive: 6.37% | – |
| CCN(CC)S(=O)(=O)c1ccc(C(=O)Nc2cc(C)cc(C)c2)cc1 | – | inconclusive: 11.2 µM [falling, partial curve, poor fit] |
| COc1cc(C)nc(N(Cc2ccccc2)S(=O)(=O)c2ccc(C)cc2)n1 | – | inconclusive: 18.4 µM [falling, single point] |
| O=C(c1ccco1)N1CCN(C(=O)c2ccc(-c3ccc([N+](=O)[O-])cc3)o2)CC1 | inactive: -0.791% | – |
| COc1ccccc1C(C)NCC(=O)Nc1c(F)cccc1F (configuration not stated) | – | inconclusive: 3.66 µM [activator, full curve] |
| CC1CCN(C(=O)c2cc(-c3ccccc3O)on2)CC1 | – | inconclusive: 20.6 µM [activator, single point] |
| CCN1c2ccccc2-c2nc(SCC(=O)Nc3cccc(C)c3C)ncc2S1(=O)=O | – | inconclusive: 29.1 µM [falling, single point] |
| Cc1cc(Cl)ccc1C(=O)C1CCCN(C(=O)c2cncs2)C1 (configuration not stated) | inactive: 23.8% | – |
| CCOc1ccc(Br)cc1S(=O)(=O)NCc1ccncc1 | – | inconclusive: 23.1 µM [falling, partial curve, poor fit] |
| CSCc1ccc(C(=O)OCc2nc3ccccc3s2)o1 | – | inconclusive: 20.6 µM [activator, partial curve] |
| CCOC(=O)c1cc(C)sc1/N=C/C1=C(O)CCCC1=O | inactive: 4.04% | – |
| COc1cc(C=O)cc(OC)c1OS(=O)(=O)c1ccc(NC(C)=O)cc1 | – | inconclusive: 23.1 µM [falling, single point] |
| COc1ccc(CNC(=O)CCNS(=O)(=O)c2ccc3c(c2)oc(=O)n3C)cc1 | – | inconclusive: 16.4 µM [falling, single point] |
